Test results as given in the supplement of paper PMC3334620.
Over roughly 33,000 sequences, “E-score (-0.5 to 0.5)” has its median near -0.016; the highest 2% begin near 0.3. This is one part of the list.

target: T1, Yer184c (UniProt P39961); experiment: PBM E-score (8-mer binding enrichment) (E-score (-0.5 to 0.5)); higher = stronger / more preferred TF binding; details: protein concentration: 100 nM; construct: GST-full length
T1 sequence: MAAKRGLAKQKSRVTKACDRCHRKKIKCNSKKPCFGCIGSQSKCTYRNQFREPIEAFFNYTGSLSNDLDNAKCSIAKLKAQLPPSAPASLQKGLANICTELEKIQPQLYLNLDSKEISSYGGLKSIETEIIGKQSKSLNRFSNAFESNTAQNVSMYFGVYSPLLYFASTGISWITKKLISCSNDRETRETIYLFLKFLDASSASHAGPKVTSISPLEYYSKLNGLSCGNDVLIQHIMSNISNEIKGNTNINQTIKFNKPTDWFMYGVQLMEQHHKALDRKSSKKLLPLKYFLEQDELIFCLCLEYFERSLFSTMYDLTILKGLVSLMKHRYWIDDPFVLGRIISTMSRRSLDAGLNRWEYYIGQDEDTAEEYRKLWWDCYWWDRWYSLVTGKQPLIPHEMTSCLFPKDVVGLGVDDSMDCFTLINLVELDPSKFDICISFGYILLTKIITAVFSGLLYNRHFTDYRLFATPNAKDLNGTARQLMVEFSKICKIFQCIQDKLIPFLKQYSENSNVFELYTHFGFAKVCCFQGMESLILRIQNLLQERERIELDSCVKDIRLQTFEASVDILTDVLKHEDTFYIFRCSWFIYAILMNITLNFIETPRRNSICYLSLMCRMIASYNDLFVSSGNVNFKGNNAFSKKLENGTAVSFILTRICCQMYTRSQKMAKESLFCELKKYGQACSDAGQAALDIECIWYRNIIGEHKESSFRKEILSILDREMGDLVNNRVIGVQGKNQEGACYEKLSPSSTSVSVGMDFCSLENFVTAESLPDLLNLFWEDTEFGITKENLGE
Outline: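 Masliner-normalised scans of fluorescent anti-GST signal were the basis for scoring. That signal came from GST-tagged yeast transcription factors applied at about 100-200 nM to double-stranded universal all-10-mer Agilent arrays on fresh or once-stripped slides. Each ungapped eight-base word, pooled with its reverse complement, received an E-score from the Universal PBM Analysis Suite.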

Sequence | PBM E-score
AACGCCAG | 0.0264
CCGGCACC | 0.352
CACGCGCG | -0.106
CTTATGCC | 0.0866
GCGTAGGA | -0.155
AGCCATCC | 0.0367
CTGAACAC | 0.149
AGCTGGGA | -0.166
CACAGCCA | -0.0852
AGGCCGTC | -0.0989
CGCCCAGC | -0.17
GAGTACCC | -0.283
CACGACCA | -0.127
CTACCTGC | 0.0071
ATCCGAGA | 0.252
AGGTATAG | -0.18
CGAAACGC | 0.00301
AGTAGCGG | 0.126
GAATGCCA | -0.142
GGCCTAAA | -0.0147
ACTGTCGA | -0.168
GACGTCGA | 0.119
ACAGACAG | 0.0219
ACCAGTGG | -0.168
ATCCTTTC | -0.0497

Sequence | PBM E-score
GGCGGGGA | -0.00271
ACAGTGGT | -0.186
CCGATCTA | 0.127
GCAACGCC | -0.0208
ATATTAAG | 0.231
AAAACTTT | -0.0258
CACTGGTC | -0.218
AACGGCCA | 0.175
AAATGACC | 0.042
GCGTCAAA | 0.0158
CGGTTACC | 0.1
ACACGCGT | -0.00984
AGTTGCTC | -0.079
GGCAGCCC | -0.0902
CCATGTCA | -0.175
GAAGGCAC | -0.00157
CCTTGGAC | -0.171
GGGGACAC | -0.223
CTTAGTGC | 0.081
AGCAAGCG | 0.0739
AGGATCGA | -0.0278
AGCCGGAG | 0.402
ACAGGCAT | -0.183
CCTGAACC | -0.086
GTATACAC | 0.094

Sequence | PBM E-score
AGGAGGAT | -0.169
CACCGGGC | 0.0876
AACCCACT | 0.0578
GGGGGTGA | -0.245
AAGCCTAC | -0.156
CCCGCTTC | -0.112
ATCAATTC | 0.136
GTTAAAAA | 0.188
GCTTGTCC | 0.114
ACCAGCCT | -0.123
CCAGCGAG | -0.17
CTTGGAAA | 0.0917
GTTGCGCA | -0.133
AAGACCTT | -0.113
GTGTCCGA | 0.214
ATTCCGTC | 0.149
TGTCCAAA | 0.143
CCCAGGGA | -0.194
CGAAATCC | 0.213
TGGAGTAA | -0.00232
CGCTAACA | -0.0628
TCTTGCAA | 0.212
ATATTTTA | 0.141
ACATATGC | -0.356
CGAGTATA | 0.0351

Sequence | PBM E-score
GCCACCGA | -0.115
AGACCGAC | 0.111
AGCACTGA | -0.0659
ACGTTATC | -0.1
AACAGCCT | -0.0161
ATCCTGAC | 0.00928
ATGGCGTC | -0.0897
AGCTTCCG | 0.259
CCATGTCG | -0.136
AAACGTGC | -0.0831
CGAATTAA | 0.217
ACAAGCCC | -0.199
CCGGACCA | 0.297
ACTTGCGA | 0.0706
AAGTATAT | 0.196
ATCAGTAG | -0.0144
ATCCGACC | 0.0769
AATTACTG | -0.117
ACTGCGCA | 0.0628
CATGGACC | -0.196
ACAGTTGA | -0.148
ACCCCATC | -0.212
AGGTAAAG | 0.106
CCCATAAC | -0.101
AGTTTATA | 0.256

Sequence | PBM E-score
AACTGGAG | -0.151
AGGTCTGC | -0.229
ATAGAAAC | 0.197
CCGGTACC | 0.144
AACGTATC | -0.122
GTAAGGAC | -0.00218
GTAACGGA | 0.304
AAGAGCTT | 0.0391
GTTTAAAC | 0.32
ACAGGACG | -0.171
TGTCCGAA | 0.334
AGGTTGAG | -0.124
ATAATGAC | -0.0838
CTGCGCCA | -0.154
AACTTCGC | 0.0292
ACAGGAGC | -0.0234
AACCTCTA | -0.123
CTGTTTTC | 0.0971
CCAGCAGG | -0.279
GTGCGGTA | -0.0218
CTTACTCA | -0.00888
AGCTCAAT | 0.105
AGTAGAGC | -0.169
GATTCCAA | 0.0284
GCGTGCCA | -0.206

Sequence | PBM E-score
ATACTATC | 0.172
CCCAGGAC | -0.246
CGTGTAAG | 0.0257
TATGACCA | 0.0653
AATACTAC | 0.161
AGTAGACG | 0.0179
ACGCTATC | -0.204
GAAGTGTA | -0.217
CCTCCGTC | -0.198
CGGGAAAG | 0.138
ACGGTCAT | 0.173
CTCTGACC | -0.154
CTTCTGTC | 0.0435
ACATGTAC | -0.102
CGCATTTC | 0.106
GGCTAACC | -0.123
GCTCGTCA | -0.0503
ACAGCTAC | -0.0776
AAACTAAA | 0.0448
CTAATGTA | 0.0943
GAAGAAAC | 0.0669
ATAACGCA | 0.0219
GTAGGTAA | 0.0147
TAACCACA | -0.182
TGTAAACA | 0.0508

Sequence | PBM E-score
CATCGCTA | 0.0244
CCGGAAAG | 0.312
GGCTCCAA | -0.0934
AGAGTGGC | -0.217
GATGAAGA | -0.0455
ATCGCATC | 0.014
GAGCCCGC | -0.212
ATAGACCC | 0.156
CAGTCGAC | 0.108
AGTCTGTA | -0.192
ACCCCCGA | -0.176
GCATACCA | -0.117
ACCCATGA | -0.335
ACGGATGC | 0.203
TGGATCAA | -0.0363
CCAAATCA | 0.0108
GGACGTAA | -0.109
GGGAACTA | 0.0757
CACGGAGC | 0.14
CTTACTGC | -0.0955
GCGACGTA | -0.16
ACCGCGAA | 0.189
